According to patent US10399931B2, “Octahydroanthracene compound, preparation method and application thereof” (SHANDONG XINHUA PHARMACEUTICAL CO., LTD., priority 2016, dated 2019):

Columns and labels:
[1] = system: Human cutaneous T-cell lymphoma Hut102 cells; test: MTT assay, proliferation of human cutaneous T-cell lymphoma Hut102 cells; assay type: cell-based; conditions: 10 μM, Mean ± SE
Description: (§1) The survival rate of cells was determined by MTT assay, which is based on the metabolic reduction of 3-(4,5-dimethyl-2thiahiazoyl)-3,5-di-phenyl-tetrazolium bromide (MTT) by viable cells. MTT is a yellow compound, a dye that accepts hydrogen ion, which can act on the respiratory chain in the mitochondria of viable cells. Under the action of succinate dehydrogenase and cytochrome C, the tetrazolium ring was cleaved to form blue Formazan crystals, and the amount of Formazan crystals generated was only proportional to the number of the viable cells. The enzymes disappeared in dead cells, so Formazan crystals could not be dissolved in MTT solution containing 20% sodium dodecyl sulfate (pH 4.7).
(§2) The cells in the logarithmic growth phase were selected and adjusted to an appropriate cell density, seeded in a 96-well plate, 100 μl/well, and cultured in a 37° C., 5% CO2 incubator. The cells were allowed to adhere overnight, then the culture medium was replaced and the drug was added to cultivate for 48 h. A blank control group, a drug administration group and a positive control group were set, with four repeats in each group.
(§3) After 48 h of drug treatment, the cells were incubated with 0.25 mg/ml MTT at 37° C. for 3-4 h, and 100 μl of dimethyl sulfoxide (DMSO) was added to each well after aspirating the culture solution.

[2] = system: Human leukemia HL60 cells; test: MTT assay, proliferation of human leukemia HL60 cells; assay type: cell-based; conditions: for Inhibitive rate (%) against HL60 cells: Mean ± SE
Description: as §1, §2, §3

O=C(CCCCCCC(=O)Nc1ccccc1)NO [SAHA, reference compound]
Inhibitive rate (%) against Hut102 cells [1]: 61.60 ± 0.46 %
Inhibitive rate (%) against HL60 cells ([2]; 0.01 μmol/L): 23.23 ± 1.48 %
Inhibitive rate (%) against HL60 cells ([2]; 0.1 μmol/L): 74.97 ± 1.95 %
Inhibitive rate (%) against HL60 cells ([2]; 1 μmol/L): 74.48 ± 0.44 %
Inhibitive rate (%) against HL60 cells ([2]; 10 μM, 48 h): 66.86 ± 0.21 %
Inhibitive rate (%) against HL60 cells ([2]; 10 μmol/L (rescreening)): 75.46 ± 1.27 %
IC50 ([2]; MTT, 48 h, read-out: IC50 against HL60 cells): 690 ± 160 nM
